In the supplement of paper PMC3682954:
“And” between values parts separate entries of the source, which are not always exact repeats. Equal values may be shown once. Where a name gives a salt, the structure may show the parent alone. ± gives the standard deviation of the averaged measurements. This is one part of the list. Most values come without repeats; read them as rough.

Test system: RAW 264.7
Test: HMGB1-induced TNF-alpha production relative to HMGB1-stimulated control; higher = more TNF-alpha secretion (less inhibition)
Conditions: stimulus: HMGB1 5 ug/ml, 18 h
[1] = compound concentration: 1 ug/ml

Compound	HMGB1-induced TNF-alpha production [1]	HMGB1-induced TNF-alpha production (compound concentration: 3 uM)
O=c1oc2c(O)c(O)cc3c(=O)oc4c(O)c(O)cc1c4c23 [Ellagic acid hydrate]	85.8%	
O=c1oc2c(O)c(O)cc3c(=O)oc4c(O)c(O)cc1c4c23		90.9 ± 15%
NC(N)=NC(=O)c1nc(Cl)c(N)nc1N		107%
NS(=O)(=O)c1cc2c(cc1Cl)NC(C1CC3C=CC1C3)NS2(=O)=O (stereo not drawn)		85.6%
NS(=O)(=O)c1cc2c(cc1Cl)NC(C1CC3C=CC1C3)NS2(=O)=O (stereo not drawn) [Cyclothiazide]		82.3%
O=C1NS(=O)(=O)c2ccccc21		80.1%
CC(=O)CC(c1ccccc1)c1c(O)c2ccccc2oc1=O (stereo not drawn) [Warfarin]		90.2%
CC(=O)CC(c1ccccc1)c1c(O)c2ccccc2oc1=O (stereo not drawn)		90.2 ± 8.7%
S=C(S)N1CCCC1 [Ammonium pyrrolidinedithiocarbamate]		95%
CCN(CC)CC(=O)Nc1c(C)cccc1C [Lidocaine]		103%
CCN(CC)CC(=O)Nc1c(C)cccc1C		88.8% and 112%
CCN(CC)CC(=O)Nc1c(C)cccc1C [Lidocaïne hydrochloride]		33.2%
CCN(CC)CC(=O)Nc1c(C)cccc1C [Lidocaine hydrochloride]		113%
CC(=O)OCC(=O)[C@@]12OC(C)(C)O[C@@H]1C[C@H]1[C@@H]3C[C@H](F)C4=CC(=O)C=C[C@]4(C)[C@@]3(F)[C@@H](O)C[C@@]12C		48.1%
CC(=O)OCC(=O)[C@@]12OC(C)(C)O[C@@H]1C[C@H]1[C@@H]3C[C@H](F)C4=CC(=O)C=C[C@]4(C)[C@@]3(F)[C@@H](O)C[C@@]12C [Fluocinonide]		47.5%
c1ccc2c(CC3=NCCN3)cccc2c1 [Naphazoline]		84%
c1ccc2c(CC3=NCCN3)cccc2c1		90.3%
c1ccc2c(CC3=NCCN3)cccc2c1 [Naphazoline hydrochloride]		89.1 ± 40%
O=C(O)[C@@H]1C[C@H](C(=O)O)N1 [cis-Azetidine-2,4-dicarboxylic acid]		89.2%
Ic1ccc(N2CCN(Cc3c[nH]c4ncccc34)CC2)cc1 [L-750,667 trihydrochloride]		110%
OCc1ccccc1O[C@@H]1O[C@H](CO)[C@@H](O)[C@H](O)[C@H]1O		98.9%
OCc1ccccc1O[C@@H]1O[C@H](CO)[C@@H](O)[C@H](O)[C@H]1O [D(-)-Salicin]	76%	

Retrieved one by one from the list above:
Compound	HMGB1-induced TNF-alpha production [1]	HMGB1-induced TNF-alpha production (compound concentration: 3 uM)
CCN(CC)CC(=O)Nc1c(C)cccc1C		88.8% and 112%
CC(=O)OCC(=O)[C@@]12OC(C)(C)O[C@@H]1C[C@H]1[C@@H]3C[C@H](F)C4=CC(=O)C=C[C@]4(C)[C@@]3(F)[C@@H](O)C[C@@]12C [Fluocinonide]		47.5%

Additional entries follow.

Compound	HMGB1-induced TNF-alpha production [1]	HMGB1-induced TNF-alpha production (compound concentration: 3 uM)
Nc1ncnc2c1nc(Br)n2C1OC2COP(=O)(O)O[C@@H]2C1O (stereo partly drawn) [8-Bromo-cAMP sodium]		59.1%
C=CC1=C(C(=O)O)N2C(=O)[C@@H](NC(=O)/C(=N\O)c3csc(N)n3)[C@H]2SC1 [Cefdinir]		112%
C=CC1=C(C(=O)O)N2C(=O)[C@@H](NC(=O)/C(=N\O)c3csc(N)n3)[C@H]2SC1		101 ± 8.9%
Cc1cn([C@H]2C=C[C@@H](CO)O2)c(=O)[nH]c1=O		97.5%
Cc1cn([C@H]2C=C[C@@H](CO)O2)c(=O)[nH]c1=O [Stavudine]		104%
CC(=O)OC1CCC2(C)C(CCC3(C)C2C(=O)C=C2C4CC(C)(C(=O)N5CC6CC(C5)c5cccc(=O)n5C6)CCC4(C)CCC23C)C1(C)C (stereo not drawn)	71.6%	
CC(=O)NS(=O)(=O)c1ccc(N)cc1		75.8%
CC(=O)NS(=O)(=O)c1ccc(N)cc1 [Sulfacetamide sodic hydrate]		76.2%
C=C1CC[C@@H]2[C@](C)(CO)[C@H](O)CC[C@@]2(C)[C@@H]1C/C=C1/C(=O)OC[C@H]1O [Andrographolide]	52.1%	
O=C(Nc1cccc(C(=O)Nc2ccc(S(=O)(=O)O)c3cc(S(=O)(=O)O)cc(S(=O)(=O)O)c23)c1)Nc1cccc(C(=O)Nc2ccc(S(=O)(=O)O)c3cc(S(=O)(=O)O)cc(S(=O)(=O)O)c23)c1		114%
COc1cccc2c1C(=O)c1c(O)c3c(c(O)c1C2=O)C[C@@](O)(C(C)=O)C[C@@H]3O[C@H]1C[C@H](N)[C@H](O)[C@H](C)O1 [Daunorubicin]		8.69%
COc1cccc2c1C(=O)c1c(O)c3c(c(O)c1C2=O)C[C@@](O)(C(C)=O)C[C@@H]3O[C@H]1C[C@H](N)[C@H](O)[C@H](C)O1		6.45 ± 12%
COc1cccc2c1C(=O)c1c(O)c3c(c(O)c1C2=O)C[C@@](O)(C(C)=O)C[C@@H]3O[C@H]1C[C@H](N)[C@H](O)[C@H](C)O1 [Daunorubicin hydrochloride]		0.959%
CC1=C(/C=C/C(C)=C/C=C/C(C)=C/CO)C(C)(C)CCC1		97.9%
CC1=C(/C=C/C(C)=C/C=C/C(C)=C/CO)C(C)(C)CCC1 [Retinol; Vitamin A, synthetic, 95.%]	62.8%	
COc1ccccc1N1CCN(CCN(C(=O)c2ccc(I)cc2)c2ccccn2)CC1 [p-MPPI hydrochloride]		102%
O=C(O)c1ccccc1OP(=O)(O)O		82%
O=C(O)c1ccccc1OP(=O)(O)O [Fosfosal]		119%
OC1(c2ccc(Cl)cc2)CCN(Cc2c[nH]c3ccccc23)CC1		99.1%
C/C=C(/C(=C/C)c1ccc(O)cc1)c1ccc(O)cc1		66%
C/C=C(/C(=C/C)c1ccc(O)cc1)c1ccc(O)cc1 [Dienestrol]		85%
